Experimental data as given in PMC9789103.
Results are given in words; binding and its absence hold for the method and conditions named. In cells and extracts the contact can be indirect. Some entries that bind do so weakly or less than the wild type. Tags and fused reporters may be left off the sequences shown.

Chains of the proteins cited; added tags and fusions are not shown.
UniProt P51960: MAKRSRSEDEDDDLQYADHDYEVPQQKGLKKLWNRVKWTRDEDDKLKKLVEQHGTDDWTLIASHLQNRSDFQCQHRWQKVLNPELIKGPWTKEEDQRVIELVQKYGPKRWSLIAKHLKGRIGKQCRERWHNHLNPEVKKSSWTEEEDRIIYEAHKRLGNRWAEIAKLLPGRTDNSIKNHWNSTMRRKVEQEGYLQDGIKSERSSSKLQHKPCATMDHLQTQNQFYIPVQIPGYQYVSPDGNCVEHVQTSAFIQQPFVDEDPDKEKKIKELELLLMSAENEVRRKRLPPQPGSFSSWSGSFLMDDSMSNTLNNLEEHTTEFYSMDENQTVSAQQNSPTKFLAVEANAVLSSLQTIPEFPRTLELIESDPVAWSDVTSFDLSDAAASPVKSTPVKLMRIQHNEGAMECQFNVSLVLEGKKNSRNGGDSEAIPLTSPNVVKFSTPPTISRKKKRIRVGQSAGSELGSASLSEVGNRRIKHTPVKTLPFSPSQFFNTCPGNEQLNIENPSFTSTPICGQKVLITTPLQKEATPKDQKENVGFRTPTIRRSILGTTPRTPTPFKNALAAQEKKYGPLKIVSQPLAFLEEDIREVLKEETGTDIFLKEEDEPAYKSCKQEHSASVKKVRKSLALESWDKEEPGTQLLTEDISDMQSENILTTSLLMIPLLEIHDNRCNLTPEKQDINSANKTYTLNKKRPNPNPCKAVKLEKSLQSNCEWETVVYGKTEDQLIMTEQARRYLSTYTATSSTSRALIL

T1: TESMIN-BioID2-3xFLAG (mouse) (UniProt Q9WTJ6)
T1 sequence: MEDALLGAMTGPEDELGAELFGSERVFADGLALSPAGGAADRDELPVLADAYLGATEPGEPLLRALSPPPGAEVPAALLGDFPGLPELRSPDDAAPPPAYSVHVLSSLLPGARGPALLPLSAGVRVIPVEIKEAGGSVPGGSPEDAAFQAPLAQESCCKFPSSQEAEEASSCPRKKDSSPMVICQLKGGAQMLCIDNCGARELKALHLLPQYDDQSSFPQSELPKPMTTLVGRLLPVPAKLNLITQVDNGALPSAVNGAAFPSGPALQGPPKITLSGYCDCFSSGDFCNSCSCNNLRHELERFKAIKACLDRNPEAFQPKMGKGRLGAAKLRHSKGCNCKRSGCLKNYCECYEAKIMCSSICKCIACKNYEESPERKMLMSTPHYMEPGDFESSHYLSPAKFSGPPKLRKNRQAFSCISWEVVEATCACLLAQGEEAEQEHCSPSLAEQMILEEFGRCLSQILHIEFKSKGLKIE

B1: LIN9 (protein, UniProt Q8C735 1-542)
chain: MAELDQLPDESSSAKALVSLKEGSLSNTWNEKYSSLQKTPVWKGRNAGPAVEMPFRNSKRSRLFSDEDDRQINTKSPKRNQRVAMIPQKFTATMSTPDKKASQKIGFRLRNLLKLPKAHKWCIYEWFYSNIDKPLFEGDNDFCVCLKESFPNLKTRKLTRVEWGKIRRLMGKPRRCSSAFFEEERSALKQKRQKIRLLQQRKVADVSQFKDLPDEIPLPLVIGTKVTARLRGIHDGLFTGQIDAVDTLNATYRVTFDRTGLGTHTIPDYEVLSNEPHETMPISAFGQKQRPSRFFMTPPRLHYTPPLQSPITDGDPLLGQSPWRSKVSGSDTETLGGFPVEFLIQVTKLSKILMIKKEHIKKLREMNTEAEKLKSYSMPIGIEFQRRYATIVLELEQLNKDLNKVLHKVQQYCYELAPDQGLQPADQPTDMRRRCEEEAQEIVRQANSASGQPCVENENLTDLISRLTAILLQIKCLAEGGDLNSFEFKSLTDSLNDIKNTIDASNISCFQNNVEIHVAHIQSGLSQMGNLHAFAANNTNRD

Target: T1, TESMIN-BioID2-3xFLAG (mouse)
Assay: co-IP; anti-FLAG immunoprecipitation from BioID2-Tg lysate, immunoblot for MYBL1, LIN9, DVL2; also immunoprecipitation with anti-MYBL1, -LIN9 and -DVL2 antibodies, immunoblot for TESMIN-BioID2-3xFLAG; NP40 lysis buffer, 1 h at 4 °C

Molecule | binding
MYBL1 (from UniProt P51960 1-751) | binds
B1 | binds
